Values of other authors as cited in patent US8852648B2, “Delivery of biologically-active agents using volatile, hydrophobic solvents” (Rochal Industries, LLP, priority 2012, dated 2014).
At least one structure is not confirmed: it was looked up by name or label, or the drawing left a doubt.

Conditions: cited from earlier work

Row | Compound | HLB
1 | CCCCCCCCCCCCCOC(=O)CC(C(=O)OCCCCCCCCCCCCC)S(=O)(=O)[O-].[Na+] (centres unmarked) [TR, sodium bis(tridecyl)sulfosuccinate] | 4-7
2 | CCCCC(CC)COC(=O)CC(C(=O)OCC(CC)CCCC)S(=O)(=O)[O-].[Na+] (centres unmarked) [AOT, sodium bis(2-ethylhexyl)sulfosuccinate] | 10
